Assay results taken from paper PMC3476531, “Synergy of Peptide and Sugar in O-GlcNAcase Substrate Recognition” (Chemistry & Biology, 2012).
Structures were worked out from names or drawings and are uncertain.

Amino acid sequences for entries named in this document (tags omitted). A change or cut given only in a name is not applied to a line headed by its entry.
UniProt O60502, whole entry: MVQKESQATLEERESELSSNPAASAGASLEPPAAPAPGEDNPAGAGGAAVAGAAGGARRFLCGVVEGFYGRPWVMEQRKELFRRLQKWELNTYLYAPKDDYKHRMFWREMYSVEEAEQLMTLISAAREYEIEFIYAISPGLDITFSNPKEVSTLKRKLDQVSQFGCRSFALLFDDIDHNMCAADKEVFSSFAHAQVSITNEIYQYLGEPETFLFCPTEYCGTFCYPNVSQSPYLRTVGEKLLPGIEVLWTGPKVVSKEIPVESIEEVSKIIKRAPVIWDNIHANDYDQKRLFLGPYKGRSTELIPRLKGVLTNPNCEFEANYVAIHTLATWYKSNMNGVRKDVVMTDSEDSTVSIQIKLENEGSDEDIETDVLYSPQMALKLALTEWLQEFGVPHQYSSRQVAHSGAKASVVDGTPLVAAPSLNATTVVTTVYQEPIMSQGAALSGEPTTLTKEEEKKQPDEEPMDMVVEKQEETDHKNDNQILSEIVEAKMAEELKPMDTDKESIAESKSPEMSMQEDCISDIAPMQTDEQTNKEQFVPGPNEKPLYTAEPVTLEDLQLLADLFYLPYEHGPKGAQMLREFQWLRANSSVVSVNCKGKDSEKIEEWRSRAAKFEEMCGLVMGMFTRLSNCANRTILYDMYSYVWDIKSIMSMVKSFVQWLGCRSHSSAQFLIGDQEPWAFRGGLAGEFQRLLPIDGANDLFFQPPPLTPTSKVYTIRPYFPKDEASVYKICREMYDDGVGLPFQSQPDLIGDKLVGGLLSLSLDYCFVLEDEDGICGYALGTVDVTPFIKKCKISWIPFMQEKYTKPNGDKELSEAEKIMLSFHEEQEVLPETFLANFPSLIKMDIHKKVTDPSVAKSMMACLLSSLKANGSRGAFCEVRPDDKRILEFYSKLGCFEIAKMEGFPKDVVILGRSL
UniProt O60502, whole entry Y69F: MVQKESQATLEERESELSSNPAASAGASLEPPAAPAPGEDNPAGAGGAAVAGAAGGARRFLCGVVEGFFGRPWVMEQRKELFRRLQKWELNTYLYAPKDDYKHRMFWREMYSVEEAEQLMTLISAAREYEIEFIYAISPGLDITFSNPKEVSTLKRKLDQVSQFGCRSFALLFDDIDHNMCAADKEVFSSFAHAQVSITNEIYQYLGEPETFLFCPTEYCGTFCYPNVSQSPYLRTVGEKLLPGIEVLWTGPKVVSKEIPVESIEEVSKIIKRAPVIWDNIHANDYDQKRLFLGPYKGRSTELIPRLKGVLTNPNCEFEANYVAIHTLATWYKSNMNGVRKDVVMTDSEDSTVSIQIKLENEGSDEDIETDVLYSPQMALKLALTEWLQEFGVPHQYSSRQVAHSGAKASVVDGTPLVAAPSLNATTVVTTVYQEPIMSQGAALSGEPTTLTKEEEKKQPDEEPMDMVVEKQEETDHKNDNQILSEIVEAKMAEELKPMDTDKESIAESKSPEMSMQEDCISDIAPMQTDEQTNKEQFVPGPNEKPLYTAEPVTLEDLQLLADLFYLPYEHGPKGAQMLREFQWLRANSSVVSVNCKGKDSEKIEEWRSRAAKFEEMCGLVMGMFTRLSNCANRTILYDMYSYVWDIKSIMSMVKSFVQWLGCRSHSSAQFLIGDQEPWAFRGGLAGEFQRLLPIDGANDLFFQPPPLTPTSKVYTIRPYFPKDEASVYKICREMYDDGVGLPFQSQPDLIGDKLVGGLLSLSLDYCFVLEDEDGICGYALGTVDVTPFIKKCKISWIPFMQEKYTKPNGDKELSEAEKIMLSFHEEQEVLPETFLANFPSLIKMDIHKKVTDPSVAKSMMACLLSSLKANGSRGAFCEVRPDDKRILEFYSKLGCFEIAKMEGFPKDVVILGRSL
UniProt O60502, whole entry Y69K: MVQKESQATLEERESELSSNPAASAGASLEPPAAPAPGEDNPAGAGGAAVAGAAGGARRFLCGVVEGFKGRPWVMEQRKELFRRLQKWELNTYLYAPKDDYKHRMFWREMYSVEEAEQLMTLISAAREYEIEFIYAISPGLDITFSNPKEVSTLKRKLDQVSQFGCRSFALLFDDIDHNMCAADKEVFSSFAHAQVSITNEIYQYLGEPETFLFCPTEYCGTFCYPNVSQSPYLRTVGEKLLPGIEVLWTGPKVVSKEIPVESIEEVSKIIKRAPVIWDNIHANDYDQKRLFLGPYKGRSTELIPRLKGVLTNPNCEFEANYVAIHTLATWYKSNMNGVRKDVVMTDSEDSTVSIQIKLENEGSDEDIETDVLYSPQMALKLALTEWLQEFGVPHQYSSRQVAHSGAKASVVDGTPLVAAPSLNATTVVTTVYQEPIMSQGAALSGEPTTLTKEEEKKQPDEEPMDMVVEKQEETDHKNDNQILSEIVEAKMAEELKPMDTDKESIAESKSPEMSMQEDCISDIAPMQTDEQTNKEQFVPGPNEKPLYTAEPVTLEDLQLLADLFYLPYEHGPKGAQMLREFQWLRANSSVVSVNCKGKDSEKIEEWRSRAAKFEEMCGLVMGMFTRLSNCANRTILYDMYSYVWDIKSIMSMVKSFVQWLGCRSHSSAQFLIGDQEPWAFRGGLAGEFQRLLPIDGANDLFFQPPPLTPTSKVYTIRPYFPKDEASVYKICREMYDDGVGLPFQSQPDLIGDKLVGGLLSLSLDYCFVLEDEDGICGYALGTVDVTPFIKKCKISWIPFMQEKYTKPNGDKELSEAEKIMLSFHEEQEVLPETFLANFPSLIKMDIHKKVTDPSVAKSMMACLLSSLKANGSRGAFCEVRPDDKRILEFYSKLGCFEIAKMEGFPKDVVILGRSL
UniProt O60502, whole entry Y69Q: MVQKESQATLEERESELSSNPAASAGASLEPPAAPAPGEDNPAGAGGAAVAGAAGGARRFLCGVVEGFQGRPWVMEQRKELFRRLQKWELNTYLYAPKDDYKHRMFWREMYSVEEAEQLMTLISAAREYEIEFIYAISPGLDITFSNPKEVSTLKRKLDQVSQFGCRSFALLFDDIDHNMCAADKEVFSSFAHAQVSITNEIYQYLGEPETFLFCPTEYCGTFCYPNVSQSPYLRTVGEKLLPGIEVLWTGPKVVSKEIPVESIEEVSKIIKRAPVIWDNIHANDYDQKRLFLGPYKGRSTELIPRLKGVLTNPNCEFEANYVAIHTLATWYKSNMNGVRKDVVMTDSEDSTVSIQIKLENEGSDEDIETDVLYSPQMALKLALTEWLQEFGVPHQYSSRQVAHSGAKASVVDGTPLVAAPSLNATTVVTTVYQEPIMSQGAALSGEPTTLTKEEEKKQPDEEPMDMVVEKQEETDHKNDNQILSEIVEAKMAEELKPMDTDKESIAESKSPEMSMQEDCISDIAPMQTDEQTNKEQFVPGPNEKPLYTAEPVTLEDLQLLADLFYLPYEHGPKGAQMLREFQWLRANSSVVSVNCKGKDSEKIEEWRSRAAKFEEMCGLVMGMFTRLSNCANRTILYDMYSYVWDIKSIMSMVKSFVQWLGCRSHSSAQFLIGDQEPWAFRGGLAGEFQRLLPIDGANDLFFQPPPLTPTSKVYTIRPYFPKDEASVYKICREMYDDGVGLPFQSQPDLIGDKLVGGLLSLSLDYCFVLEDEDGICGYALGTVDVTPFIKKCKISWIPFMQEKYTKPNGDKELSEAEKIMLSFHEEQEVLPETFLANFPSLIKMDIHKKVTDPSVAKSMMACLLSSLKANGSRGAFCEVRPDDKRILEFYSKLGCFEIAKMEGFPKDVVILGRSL
UniProt O60502, whole entry Y69S: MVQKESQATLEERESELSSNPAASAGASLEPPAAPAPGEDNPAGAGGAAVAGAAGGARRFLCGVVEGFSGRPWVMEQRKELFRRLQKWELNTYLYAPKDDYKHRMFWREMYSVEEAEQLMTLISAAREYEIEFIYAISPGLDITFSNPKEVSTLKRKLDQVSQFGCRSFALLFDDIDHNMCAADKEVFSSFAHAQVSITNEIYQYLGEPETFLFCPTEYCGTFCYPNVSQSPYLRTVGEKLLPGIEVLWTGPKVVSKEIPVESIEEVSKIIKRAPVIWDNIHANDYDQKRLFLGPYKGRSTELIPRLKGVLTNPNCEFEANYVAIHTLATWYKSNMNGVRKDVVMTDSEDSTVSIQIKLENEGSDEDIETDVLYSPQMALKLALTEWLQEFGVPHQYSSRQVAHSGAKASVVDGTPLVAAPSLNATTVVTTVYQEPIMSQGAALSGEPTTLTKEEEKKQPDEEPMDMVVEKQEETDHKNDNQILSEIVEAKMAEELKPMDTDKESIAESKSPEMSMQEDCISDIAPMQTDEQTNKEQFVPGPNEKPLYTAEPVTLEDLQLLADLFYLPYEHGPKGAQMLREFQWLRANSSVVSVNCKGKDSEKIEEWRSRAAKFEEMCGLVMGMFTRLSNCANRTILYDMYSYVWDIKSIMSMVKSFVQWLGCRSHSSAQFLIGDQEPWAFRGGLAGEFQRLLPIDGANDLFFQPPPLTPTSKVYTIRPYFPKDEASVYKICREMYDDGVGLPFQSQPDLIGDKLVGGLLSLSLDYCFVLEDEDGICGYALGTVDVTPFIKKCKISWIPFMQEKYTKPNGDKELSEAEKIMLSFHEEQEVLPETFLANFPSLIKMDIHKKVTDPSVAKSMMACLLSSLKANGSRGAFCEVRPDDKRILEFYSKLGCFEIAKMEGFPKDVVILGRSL

Columns and labels:
Assay type in all cases: biochemical
hOGA Y69K = hOGA Y69K (Homo sapiens, UniProt O60502, Y69K); assay: hOGA Y69K mutant glycopeptide hydrolysis, substrate competition assay; conditions: read-out: Michaelis constant (KM) for hOGA Y69K; hOGA point mutant Y69K; competition with 4MU-GlcNAc; 37°C, pH 7.4; triplicate
hOGA = hOGA (Homo sapiens, UniProt O60502); assay: hOGA glycopeptide hydrolysis, substrate competition assay with 4MU-GlcNAc reporter; conditions: read-out: Michaelis constant (KM) of glycopeptide substrate for hOGA; wild-type full-length hOGA; competition with 4MU-GlcNAc reporter substrate; 37°C, 50 mM citrate-phosphate buffer pH 7.4, 0.1 mg/ml BSA; triplicate; ± error of curve-fit; listed as VDS(O-GlcNAc)TPG
hOGA Y69S = hOGA Y69S (Homo sapiens, UniProt O60502, Y69S); assay: hOGA Y69S mutant glycopeptide hydrolysis, substrate competition assay; conditions: read-out: Michaelis constant (KM) for hOGA Y69S; hOGA point mutant Y69S; competition with 4MU-GlcNAc; 37°C, pH 7.4; triplicate
hOGA Y69Q = hOGA Y69Q (Homo sapiens, UniProt O60502, Y69Q); assay: hOGA Y69Q mutant glycopeptide hydrolysis, substrate competition assay; conditions: read-out: Michaelis constant (KM) for hOGA Y69Q; hOGA point mutant Y69Q; competition with 4MU-GlcNAc; 37°C, pH 7.4; triplicate
hOGA Y69F = hOGA Y69F (Homo sapiens, UniProt O60502, Y69F); assay: hOGA Y69F mutant glycopeptide hydrolysis, substrate competition assay; conditions: read-out: Michaelis constant (KM) for hOGA Y69F; hOGA point mutant Y69F; competition with 4MU-GlcNAc; 37°C, pH 7.4; triplicate

With `CC(=O)N[C@H]1[C@H](OC[C@H](NC(=O)[C@H](CC(=O)O)NC(=O)[C@@H](NC(C)=O)C(C)C)C(=O)N[C@H](C(=O)N2CCC[C@H]2C(=O)NCC(N)=O)[C@@H](C)O)O[C@H](CO)[C@@H](O)[C@@H]1O` the Km (hOGA Y69K) was > 4 mM, the Km (hOGA) was 1.3 mM and the Km (hOGA Y69S) was 3.4 mM. The Km (hOGA Y69Q) was > 4 mM and the Km (hOGA Y69F) was 2.7 mM.
